Assay results from article PMC12257678.
No constants are given. Whether binding was seen depends on the method and setting. Binding seen in cells or lysates may run through a third protein. Some binding calls cover weakened binding; strength is not graded here.

Chains of the proteins cited; added tags and fusions are not shown.
UniProt O35800: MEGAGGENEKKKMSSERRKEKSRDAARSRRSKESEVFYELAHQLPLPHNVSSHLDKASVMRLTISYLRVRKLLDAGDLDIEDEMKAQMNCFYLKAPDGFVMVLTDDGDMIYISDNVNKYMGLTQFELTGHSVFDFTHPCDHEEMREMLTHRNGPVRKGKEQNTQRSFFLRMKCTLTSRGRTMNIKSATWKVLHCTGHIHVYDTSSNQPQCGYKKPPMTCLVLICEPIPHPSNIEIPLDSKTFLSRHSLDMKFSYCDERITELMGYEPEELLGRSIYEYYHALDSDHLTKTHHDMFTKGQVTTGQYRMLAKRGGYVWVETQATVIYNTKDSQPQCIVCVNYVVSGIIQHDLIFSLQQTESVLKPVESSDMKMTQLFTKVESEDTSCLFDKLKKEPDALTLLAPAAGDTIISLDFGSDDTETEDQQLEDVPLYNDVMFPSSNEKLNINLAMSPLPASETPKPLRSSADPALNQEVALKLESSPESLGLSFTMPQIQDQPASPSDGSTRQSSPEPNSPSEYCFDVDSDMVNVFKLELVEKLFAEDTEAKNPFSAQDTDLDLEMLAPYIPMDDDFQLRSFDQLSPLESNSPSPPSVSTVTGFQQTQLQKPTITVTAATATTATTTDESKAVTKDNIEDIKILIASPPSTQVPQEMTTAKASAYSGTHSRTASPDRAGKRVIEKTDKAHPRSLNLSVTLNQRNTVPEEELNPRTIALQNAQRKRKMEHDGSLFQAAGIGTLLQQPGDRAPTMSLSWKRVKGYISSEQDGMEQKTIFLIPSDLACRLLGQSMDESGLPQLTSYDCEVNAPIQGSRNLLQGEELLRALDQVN

Target: T1, Glycoprotein non-metastatic melanoma protein B (rat (endogenous in PC-12)) (UniProt Q6P7C7)
T1 sequence: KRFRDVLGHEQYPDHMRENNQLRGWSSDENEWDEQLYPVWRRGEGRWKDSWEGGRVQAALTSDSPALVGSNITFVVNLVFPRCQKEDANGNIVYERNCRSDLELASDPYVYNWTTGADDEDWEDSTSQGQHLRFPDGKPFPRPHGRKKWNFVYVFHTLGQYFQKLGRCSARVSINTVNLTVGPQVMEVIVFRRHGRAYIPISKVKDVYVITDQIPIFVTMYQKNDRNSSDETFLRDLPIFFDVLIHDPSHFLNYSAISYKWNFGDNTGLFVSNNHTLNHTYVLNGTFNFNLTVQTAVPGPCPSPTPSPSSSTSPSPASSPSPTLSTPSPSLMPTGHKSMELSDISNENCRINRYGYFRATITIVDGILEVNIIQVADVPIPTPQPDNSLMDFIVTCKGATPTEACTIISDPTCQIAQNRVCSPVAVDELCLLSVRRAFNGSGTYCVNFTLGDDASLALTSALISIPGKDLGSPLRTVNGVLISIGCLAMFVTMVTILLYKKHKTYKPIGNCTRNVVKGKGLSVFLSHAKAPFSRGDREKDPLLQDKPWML
Experiment: co-IP; lysates of OGD-treated PC-12 cells (IP lysis buffer) incubated with anti-GPNMB or anti-HIF-1α antibody or normal IgG at 4 °C overnight; Protein A/G magnetic beads; eluates analysed by western blot

binding: binds
Substance: HIF-1α (from UniProt O35800 1-825)
